Reference: patent US20250042957A1
Substitutions are numbered along the chain they refer to. No constants are given. Whether binding was seen depends on the method and setting. Some binding calls cover weakened binding; strength is not graded here.

Amino acid sequences for entries named in this document (tags omitted). A change or cut given only in a name is not applied to a line headed by its entry. Chains listed by the source or under a name are the forms on record and can include a tag or linker.
UniProt P07766: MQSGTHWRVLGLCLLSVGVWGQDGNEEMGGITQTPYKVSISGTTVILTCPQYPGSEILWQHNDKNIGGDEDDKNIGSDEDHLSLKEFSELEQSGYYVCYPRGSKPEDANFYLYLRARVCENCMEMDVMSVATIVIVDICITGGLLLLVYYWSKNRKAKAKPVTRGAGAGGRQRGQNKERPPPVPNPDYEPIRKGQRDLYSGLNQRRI
UniProt P09693: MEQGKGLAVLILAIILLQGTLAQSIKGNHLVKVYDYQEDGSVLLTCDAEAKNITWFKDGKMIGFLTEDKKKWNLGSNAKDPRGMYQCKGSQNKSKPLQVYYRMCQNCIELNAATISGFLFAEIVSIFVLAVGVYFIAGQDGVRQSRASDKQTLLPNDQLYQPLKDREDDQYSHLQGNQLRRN
VEGF165 (P15692, form named): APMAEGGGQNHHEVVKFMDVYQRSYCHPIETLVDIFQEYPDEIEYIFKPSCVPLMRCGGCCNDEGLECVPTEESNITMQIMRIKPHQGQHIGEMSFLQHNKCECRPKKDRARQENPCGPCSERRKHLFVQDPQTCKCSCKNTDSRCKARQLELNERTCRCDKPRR

B1: Switchdrug DARPin 17-B (designed binder)
chain: MRGSHHHHHHGSDLGKKLLQAARAGQLDEVRELLKAGADVNAKDSTGWTPLHLAAPWGHPEIVEVLLKAGADVNAKDFQGWTPLHLAAAAGHLEIVEVLLKAGADVNAKDWLGWTPLHLAASHGHLEIVEVLLKAGADVNAQDKSGKTPADLAARAGHQDIAEVLQKAAGSPTPTPTTPTPTPTTPTPTPTGSDLGKKLLQAARAGQLDEVRELLKAGADVNAKDQYGRTPLHLAAIKGHLEIVEVLLKAGADVNAKDSLGYTPLHLAAVEGPLEIVEVLLKAGADVNAKDAYGQTPLHIAAAWGHLEIVEVLLKAVADVNAQDKSGKTPADLAARAGHQDIAEVLQKAAGSPTPTPTTPTPTPTTPTPTPTGSDLGQKLLEAAWAGQDDEVRELLKAGADVNAKNSRGWTPLHTAAQTGHLEIFEVLLKAGADVNAKNDKRVTPLHLAAALGHLEIVEVLLKAGADVNARDSWGTTPADLAAKYGHQDIAEVLQKAA
B2: VEGF-binder (SEQ ID NO: 1) (designed binder)
chain: DLDKKLLEAARAGQDDEVRILLKAGADVNAKDSTGWTPLHLAAPWGHPEIVEVLLKAGADVNAKDFQGWTPLHLAAAAGHLEIVEVLLKAGADVNAQDKSGKTPADLAADAGHEDIAEVLQKAA
B3: Format B control construct ([α-VEGF binder]-[α-CD123 binder]-[α-CD3 binder]) (designed binder)
chain: MRGSHHHHHHGSDLDKKLLEAARAGQDDEVRILLKAGADVNAKDSTGWTPLHLAAPWGHPEIVEVLLKAGADVNAKDFQGWTPLHLAAAAGHLEIVEVLLKAGADVNAQDKSGKTPADLAADAGHEDIAEVLQKAAGSPTPTPTTPTPTPTTPTPTPTGSDLGKKLLQAARAGQLDEVRELLKAGADVNAKDQYGRTPLHLAAIKGHLEIVEVLLKAGADVNAKDSLGYTPLHLAAVEGPLEIVEVLLKAGADVNAKDAYGQTPLHIAAAWGHLEIVEVLLKAVADVNAQDKSGKTPADLAARAGHQDIAEVLQKAAGSPTPTPTTPTPTPTTPTPTPTGSDLGQKLLEAAWAGQDDEVRELLKAGADVNAKNSRGWTPLHTAAQTGHLEIFEVLLKAGADVNAKNDKRVTPLHLAAALGHLEIVEVLLKAGADVNARDSWGTTPADLAAKYGHQDIAEVLQKAA
B4: 2-in-1 DARPin 18 (SEQ ID NO: 11) (designed binder)
chain: DLDKKLLEAARAGQDDEVRILLKAGADVNAKDSTGWTPLHLAAPWGHPEIVEVLLKAGADVNAKDFQGWTPLHLAAAAGHLEIVEVLLKAGADVNAKDVYGWTPLHIAAASGHLEIVEVLLKAGADVNAKDWLGWTPLHLAASHGHLEIVEVLLKAGADVNAQDKSGKTPADLAARAGHQDIAEVLQKAA
B5: 2-in-1 DARPin 19 (SEQ ID NO: 12) (designed binder)
chain: B4 chain with Q67K, I107L, S111A
B6: 2-in-1 DARPin 20 (SEQ ID NO: 13) (designed binder)
chain: B4 chain with I107L, S111A
B7: 2-in-1 DARPin 11 (SEQ ID NO: 6) (designed binder)
chain: DLDKKLLEAARAGQDDEVRILLKAGADVNAKDSTGWTPLHLAAPWGHPEIVEVLLKAGADVNAKDVYGWTPLHIAAASGHLEIVEVLLKAGADVNAKDWLGWTPLHLAASHGHLEIVEVLLKAGADVNAQDKSGKTPADLAARAGHQDIAEVLQKAA
B8: 2-in-1 DARPin 12 (SEQ ID NO: 7) (designed binder)
chain: B7 chain with I74L, S78A

Key:
[1] = target: T1, human CD3 on Jurkat cells (human) (UniProt P07766+P09693); test: flow cytometry on Jurkat cells, anti-penta-His detection, with or without VEGF (100 or 400 nM)
[2] = target: VEGF165 (UniProt P15692); test: ELISA, biotinylated VEGF165 on neutravidin plate, anti-His detection; residual binding of the closed form
[3] = target: VEGF165 (UniProt P15692); test: ELISA: plate-bound biotinylated VEGF165, His-tagged construct titrated, no soluble VEGF, anti-His-HRP detection
[4] = target: T1, human CD3 on Jurkat cells (human); test: flow cytometry on Jurkat cells, construct titrated without VEGF or with 100 nM or 400 nM soluble VEGF, anti-penta-His Alexa Fluor 488 detection
[5] = target: VEGF165 (UniProt P15692); test: ELISA, biotinylated VEGF165 on neutravidin plate; reference binder
[6] = target: VEGF165 (UniProt P15692); test: ELISA: plate-bound biotinylated VEGF165, His-tagged binder titrated, anti-His-HRP detection
[7] = target: T1, human CD3 on Jurkat cells (human); test: flow cytometry on Jurkat cells, control construct titrated with 100 nM soluble VEGF, anti-penta-His Alexa Fluor 488 detection
[8] = target: T1, human CD3 on Jurkat cells (human); test: flow cytometry on Jurkat cells, anti-penta-His detection
[9] = target: VEGF165 (UniProt P15692); test: screen of 29 designs
[10] = target: VEGF165 (UniProt P15692); test: SPR (ProteOn)

| binding [9] | binding [10] | further results | Binder |
| --- | --- | --- | --- |
|  |  | binding [1]: binds; binding [2]: binds; binding [3]: binds; binding [4]: binds | B1 |
|  |  | binding [5]: binds; binding [6]: binds | B2 |
|  |  | binding [7]: binds; binding [8]: binds | B3 |
| binds | binds |  | B4 |
| binds | binds |  | B5 |
| binds | binds |  | B6 |
| binds | binds |  | B7 |
| binds | binds |  | B8 |
